# Some of the results follow.
# Sequences of proteins named here, by UniProt entry; tags and fusion partners are left off. A change or cut given only in a name is not applied to a line headed by its entry.
# UniProt Q6GPH4: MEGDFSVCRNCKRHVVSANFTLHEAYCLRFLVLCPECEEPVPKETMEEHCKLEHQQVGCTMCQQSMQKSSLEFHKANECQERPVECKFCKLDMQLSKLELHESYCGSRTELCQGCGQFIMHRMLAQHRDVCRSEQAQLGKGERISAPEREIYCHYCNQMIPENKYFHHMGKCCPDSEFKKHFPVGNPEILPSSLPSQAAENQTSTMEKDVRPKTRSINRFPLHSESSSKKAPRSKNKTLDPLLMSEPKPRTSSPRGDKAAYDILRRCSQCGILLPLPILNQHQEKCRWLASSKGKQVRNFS
# UniProt O75717: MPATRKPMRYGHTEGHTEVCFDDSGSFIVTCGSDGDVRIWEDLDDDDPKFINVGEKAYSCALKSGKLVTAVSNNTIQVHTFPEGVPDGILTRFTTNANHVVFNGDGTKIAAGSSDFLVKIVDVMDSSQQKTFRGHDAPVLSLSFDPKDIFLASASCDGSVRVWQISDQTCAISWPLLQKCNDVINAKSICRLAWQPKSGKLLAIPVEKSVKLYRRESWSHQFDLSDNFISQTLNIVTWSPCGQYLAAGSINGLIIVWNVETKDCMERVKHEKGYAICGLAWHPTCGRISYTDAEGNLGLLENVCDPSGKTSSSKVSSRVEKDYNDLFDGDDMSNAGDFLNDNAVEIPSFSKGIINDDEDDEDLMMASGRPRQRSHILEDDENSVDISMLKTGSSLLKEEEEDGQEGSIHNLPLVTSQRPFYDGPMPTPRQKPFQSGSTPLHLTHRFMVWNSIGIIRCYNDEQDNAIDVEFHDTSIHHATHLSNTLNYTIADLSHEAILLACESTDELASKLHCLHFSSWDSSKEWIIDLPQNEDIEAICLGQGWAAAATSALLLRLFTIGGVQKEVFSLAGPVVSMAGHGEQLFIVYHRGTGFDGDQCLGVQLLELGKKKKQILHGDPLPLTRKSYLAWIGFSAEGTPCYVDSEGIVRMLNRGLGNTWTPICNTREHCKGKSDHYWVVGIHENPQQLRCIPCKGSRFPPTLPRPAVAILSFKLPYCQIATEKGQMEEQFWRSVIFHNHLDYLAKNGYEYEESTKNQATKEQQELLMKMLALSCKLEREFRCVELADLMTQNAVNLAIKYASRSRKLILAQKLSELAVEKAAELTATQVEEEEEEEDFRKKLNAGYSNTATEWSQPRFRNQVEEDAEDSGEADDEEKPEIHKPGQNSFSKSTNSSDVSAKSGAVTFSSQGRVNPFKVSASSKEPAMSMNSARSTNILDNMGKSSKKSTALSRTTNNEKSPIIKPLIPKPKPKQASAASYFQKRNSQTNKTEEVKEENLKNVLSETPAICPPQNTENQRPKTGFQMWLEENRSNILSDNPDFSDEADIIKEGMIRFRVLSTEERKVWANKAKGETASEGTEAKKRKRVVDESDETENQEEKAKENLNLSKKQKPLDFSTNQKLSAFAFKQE
# UniProt Q9Y2I8: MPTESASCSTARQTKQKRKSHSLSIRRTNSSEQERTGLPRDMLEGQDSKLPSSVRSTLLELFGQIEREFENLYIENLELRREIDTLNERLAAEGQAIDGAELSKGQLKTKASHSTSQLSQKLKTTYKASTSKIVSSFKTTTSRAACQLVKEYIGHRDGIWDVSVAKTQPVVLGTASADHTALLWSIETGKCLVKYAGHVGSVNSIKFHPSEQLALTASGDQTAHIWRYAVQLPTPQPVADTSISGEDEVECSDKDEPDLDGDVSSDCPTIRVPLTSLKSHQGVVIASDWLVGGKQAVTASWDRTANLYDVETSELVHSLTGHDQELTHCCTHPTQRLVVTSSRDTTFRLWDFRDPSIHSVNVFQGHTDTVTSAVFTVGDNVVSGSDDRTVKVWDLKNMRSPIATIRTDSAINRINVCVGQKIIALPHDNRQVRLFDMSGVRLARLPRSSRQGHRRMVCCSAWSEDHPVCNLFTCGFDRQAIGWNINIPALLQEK
# UniProt Q9HCS7: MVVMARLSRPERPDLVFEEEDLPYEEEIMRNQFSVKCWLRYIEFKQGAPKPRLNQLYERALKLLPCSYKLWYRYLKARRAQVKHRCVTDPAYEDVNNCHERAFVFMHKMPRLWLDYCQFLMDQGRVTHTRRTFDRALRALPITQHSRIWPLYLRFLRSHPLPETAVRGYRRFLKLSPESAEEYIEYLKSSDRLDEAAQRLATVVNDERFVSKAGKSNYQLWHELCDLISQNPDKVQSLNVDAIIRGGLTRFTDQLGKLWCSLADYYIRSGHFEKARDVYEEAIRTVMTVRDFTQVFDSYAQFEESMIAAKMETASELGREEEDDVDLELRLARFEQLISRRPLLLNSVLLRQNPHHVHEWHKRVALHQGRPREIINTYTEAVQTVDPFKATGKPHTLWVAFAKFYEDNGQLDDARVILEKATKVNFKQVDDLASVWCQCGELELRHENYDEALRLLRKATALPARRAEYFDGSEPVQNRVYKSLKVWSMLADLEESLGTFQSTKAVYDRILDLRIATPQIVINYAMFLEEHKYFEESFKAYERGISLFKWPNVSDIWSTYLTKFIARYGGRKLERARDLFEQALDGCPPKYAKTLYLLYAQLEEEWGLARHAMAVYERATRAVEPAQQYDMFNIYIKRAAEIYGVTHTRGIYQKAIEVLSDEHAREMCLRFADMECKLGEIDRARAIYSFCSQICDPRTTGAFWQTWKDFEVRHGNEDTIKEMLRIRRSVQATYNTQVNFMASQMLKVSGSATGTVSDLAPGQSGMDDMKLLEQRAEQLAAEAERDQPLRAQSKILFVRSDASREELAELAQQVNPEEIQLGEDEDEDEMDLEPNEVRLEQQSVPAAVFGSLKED
# UniProt Q8IWA0: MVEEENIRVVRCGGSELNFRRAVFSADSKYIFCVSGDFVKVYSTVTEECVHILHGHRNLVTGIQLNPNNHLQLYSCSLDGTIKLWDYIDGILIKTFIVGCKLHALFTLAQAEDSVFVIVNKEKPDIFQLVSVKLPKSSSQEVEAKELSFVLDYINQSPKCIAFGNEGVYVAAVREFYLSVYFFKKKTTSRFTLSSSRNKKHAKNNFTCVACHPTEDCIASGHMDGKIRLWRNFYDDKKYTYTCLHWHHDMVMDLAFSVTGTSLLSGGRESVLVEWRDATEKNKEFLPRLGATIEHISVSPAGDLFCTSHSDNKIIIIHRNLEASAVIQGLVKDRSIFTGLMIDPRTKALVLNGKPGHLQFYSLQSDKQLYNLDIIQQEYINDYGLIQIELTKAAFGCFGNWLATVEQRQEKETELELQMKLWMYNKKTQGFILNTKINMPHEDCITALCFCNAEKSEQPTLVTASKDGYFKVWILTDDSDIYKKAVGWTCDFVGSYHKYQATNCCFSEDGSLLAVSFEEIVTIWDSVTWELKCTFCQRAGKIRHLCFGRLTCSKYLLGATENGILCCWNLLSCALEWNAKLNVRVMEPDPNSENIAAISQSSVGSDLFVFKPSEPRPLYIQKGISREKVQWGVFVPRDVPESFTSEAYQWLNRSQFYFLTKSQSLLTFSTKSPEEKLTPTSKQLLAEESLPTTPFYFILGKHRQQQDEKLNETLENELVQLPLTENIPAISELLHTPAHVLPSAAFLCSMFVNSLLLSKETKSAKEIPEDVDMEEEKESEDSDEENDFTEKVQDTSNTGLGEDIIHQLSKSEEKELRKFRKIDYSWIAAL
# UniProt O00308: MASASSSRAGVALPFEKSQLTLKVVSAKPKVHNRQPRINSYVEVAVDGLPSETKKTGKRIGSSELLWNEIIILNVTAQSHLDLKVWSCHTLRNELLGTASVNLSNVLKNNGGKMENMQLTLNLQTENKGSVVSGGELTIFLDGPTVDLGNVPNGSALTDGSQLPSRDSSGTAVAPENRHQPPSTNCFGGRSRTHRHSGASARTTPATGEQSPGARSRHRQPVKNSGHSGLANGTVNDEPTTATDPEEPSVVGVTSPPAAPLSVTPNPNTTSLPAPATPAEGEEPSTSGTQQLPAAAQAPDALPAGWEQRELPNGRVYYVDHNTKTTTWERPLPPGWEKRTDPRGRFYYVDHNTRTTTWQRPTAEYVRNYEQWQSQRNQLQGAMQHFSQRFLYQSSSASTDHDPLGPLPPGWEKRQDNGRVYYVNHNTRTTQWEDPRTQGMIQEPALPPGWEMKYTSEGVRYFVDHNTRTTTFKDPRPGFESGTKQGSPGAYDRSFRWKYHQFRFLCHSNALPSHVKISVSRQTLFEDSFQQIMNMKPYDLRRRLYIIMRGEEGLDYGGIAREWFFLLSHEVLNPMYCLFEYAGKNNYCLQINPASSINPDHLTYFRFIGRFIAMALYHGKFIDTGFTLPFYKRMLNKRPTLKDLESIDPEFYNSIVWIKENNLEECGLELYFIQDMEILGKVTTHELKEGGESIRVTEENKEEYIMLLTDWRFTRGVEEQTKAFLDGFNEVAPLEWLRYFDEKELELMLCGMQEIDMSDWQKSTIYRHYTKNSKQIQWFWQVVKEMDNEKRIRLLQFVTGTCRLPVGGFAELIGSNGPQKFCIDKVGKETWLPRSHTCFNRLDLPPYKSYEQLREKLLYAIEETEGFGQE
# UniProt Q9H6Y2: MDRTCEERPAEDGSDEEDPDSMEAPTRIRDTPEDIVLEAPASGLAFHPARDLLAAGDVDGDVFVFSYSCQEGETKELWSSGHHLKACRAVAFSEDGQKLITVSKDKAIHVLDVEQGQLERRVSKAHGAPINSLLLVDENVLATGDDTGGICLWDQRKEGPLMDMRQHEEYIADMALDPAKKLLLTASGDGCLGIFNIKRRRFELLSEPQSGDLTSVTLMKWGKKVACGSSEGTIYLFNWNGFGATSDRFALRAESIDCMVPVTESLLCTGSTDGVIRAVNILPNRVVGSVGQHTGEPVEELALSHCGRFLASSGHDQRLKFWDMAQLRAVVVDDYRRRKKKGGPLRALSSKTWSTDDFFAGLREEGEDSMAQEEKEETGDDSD
# UniProt Q14191, whole entry, looked up: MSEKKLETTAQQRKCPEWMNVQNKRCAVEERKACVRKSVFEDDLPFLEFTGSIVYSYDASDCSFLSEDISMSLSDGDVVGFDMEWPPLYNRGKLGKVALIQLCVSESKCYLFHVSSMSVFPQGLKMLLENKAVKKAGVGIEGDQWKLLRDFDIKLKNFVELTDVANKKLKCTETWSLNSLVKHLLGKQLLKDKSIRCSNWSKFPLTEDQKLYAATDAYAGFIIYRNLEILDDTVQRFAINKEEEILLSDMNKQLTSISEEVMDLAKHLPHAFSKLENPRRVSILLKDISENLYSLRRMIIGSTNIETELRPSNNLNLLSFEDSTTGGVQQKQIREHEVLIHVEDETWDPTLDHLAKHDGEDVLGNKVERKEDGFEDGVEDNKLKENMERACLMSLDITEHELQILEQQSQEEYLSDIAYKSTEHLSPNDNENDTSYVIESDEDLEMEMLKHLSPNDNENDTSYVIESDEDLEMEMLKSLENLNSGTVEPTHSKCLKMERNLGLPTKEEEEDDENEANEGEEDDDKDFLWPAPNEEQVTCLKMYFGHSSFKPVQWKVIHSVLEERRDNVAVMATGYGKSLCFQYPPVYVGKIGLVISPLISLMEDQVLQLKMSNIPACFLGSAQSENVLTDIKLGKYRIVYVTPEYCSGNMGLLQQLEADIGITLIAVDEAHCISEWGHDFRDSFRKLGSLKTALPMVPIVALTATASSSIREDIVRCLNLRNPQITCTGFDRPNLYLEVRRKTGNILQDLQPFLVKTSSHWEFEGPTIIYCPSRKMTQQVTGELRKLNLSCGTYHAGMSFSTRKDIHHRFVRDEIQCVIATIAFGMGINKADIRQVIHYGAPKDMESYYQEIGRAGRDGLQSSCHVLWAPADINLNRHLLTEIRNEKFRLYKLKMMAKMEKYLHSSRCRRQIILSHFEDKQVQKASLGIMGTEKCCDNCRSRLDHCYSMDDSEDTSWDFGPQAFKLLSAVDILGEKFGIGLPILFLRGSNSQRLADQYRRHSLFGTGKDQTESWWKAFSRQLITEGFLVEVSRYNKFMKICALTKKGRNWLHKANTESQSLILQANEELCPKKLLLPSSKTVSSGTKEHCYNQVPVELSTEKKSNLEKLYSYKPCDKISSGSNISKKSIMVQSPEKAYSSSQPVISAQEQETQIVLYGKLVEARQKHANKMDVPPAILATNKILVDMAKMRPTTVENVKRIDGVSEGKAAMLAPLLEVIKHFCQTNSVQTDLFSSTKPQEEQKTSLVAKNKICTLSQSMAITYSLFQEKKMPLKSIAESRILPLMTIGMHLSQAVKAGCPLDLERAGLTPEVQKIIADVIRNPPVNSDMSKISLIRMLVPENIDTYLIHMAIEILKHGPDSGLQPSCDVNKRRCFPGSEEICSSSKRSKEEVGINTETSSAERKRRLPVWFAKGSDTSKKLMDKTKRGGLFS
# Compound: CC1Cc2ccccc2N1C(=O)C1CCCN(C1)C(=O)CCl (mixture of isomers) [TRIM25 ligand 11 (diastereomer mixture)]
# Assay: probe-labelled cysteine peptide fold change vs DMSO (competition) (log2 fold change); higher = less target engagement (more negative = stronger competition)
# Conditions: 10 µM; THP-1; incubation time: 4 h
# 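Also: competitive chemoproteomic profiling in live THP-1 cells with an iodoacetamide desthiobiotin (IA-DTB) probe, comparing probe-labelled peptide intensities in compound-treated cells against DMSO-treated controls.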
row,Target,probe-labelled cysteine peptide fold change
1,WDFY3_Q8IZQ1_908_CSAALADEDHSLHPPLQR (UniProt Q8IZQ1),0.273
2,XAF1_Q6GPH4_62_LEHQQVGCTMCQQSMQK (UniProt Q6GPH4),-0.157
3,WDR33_Q9C0J8_120_CPVFVVR (UniProt Q9C0J8),-0.0921
4,WDHD1_O75717_156_DIFLASASCDGSVR (UniProt O75717),0.0706
5,XIAP_P98170_213_NWEPCDR (UniProt P98170),-0.102
6,WIPI2_Q9Y4P8-2_401_AYTDDLGAVGGACLEDEASALRLDEDSEHPPMILR (UniProt Q9Y4P8),-0.437
7,WDR37_Q9Y2I8_8_PTESASCSTAR (UniProt Q9Y2I8),0.112
8,XAB2_Q9HCS7_66_LLPCSYK (UniProt Q9HCS7),-0.0825
9,XAB2_Q9HCS7_98_CVTDPAYEDVNNCHER (UniProt Q9HCS7),0.0769
10,XPC_Q01831_814_KLDIDCVQAITGFDFHGGYSHPVTDGYIVCEEFK (UniProt Q01831),-0.0239
11,WDR75_Q8IWA0_12_CGGSELNFR (UniProt Q8IWA0),0.148
12,WDR11_Q9BZH6_1000_KCTDQLLLLGQTDR (UniProt Q9BZH6),-0.0903
13,WDHD1_O75717_277+285_GYAICGLAWHPTCGR (UniProt O75717),-0.16
14,WWP2_O00308_186_HQPPSTNCFGGR (UniProt O00308),-0.035
15,WDR55_Q9H6Y2_306_VVGSVGQHTGEPVEELALSHCGR (UniProt Q9H6Y2),0.132
16,WRN_Q14191_1090_EHCYNQVPVELSTEK (UniProt Q14191),-0.0759
17,WDR59_Q6PJI9_737_QLLESLLAHYCR (UniProt Q6PJI9),0.0591
18,WDHD1_O75717_773_MLALSCK (UniProt O75717),0.00854
19,WDR76_Q9H967_596_VHSFGGEYLVSVCSINAMHPTR (UniProt Q9H967),-0.0684
20,WDR75_Q8IWA0_451_INMPHEDCITALCFCNAEK (UniProt Q8IWA0),0.027
21,WRN_Q14191_1070_ANTESQSLILQANEELCPK (UniProt Q14191),0.141
22,WDFY4_Q6ZS81_2251_KCGNIK (UniProt Q6ZS81),-0.179
23,WDR6_Q9NNW5_981_LGTPSLTLQAHSCGINSLHTLPTR (UniProt Q9NNW5),0.137
24,WDR81_Q562E7_1715_SVFFVGQLEAPQHVVSCDGAVHVWDPFTGK (UniProt Q562E7),0.0743

# Look-ups from the entries so far:
# Entry of WDR81_Q562E7_1715_SVFFVGQLEAPQHVVSCDGAVHVWDPFTGK (UniProt Q562E7) under probe-labelled cysteine peptide fold change: 0.0743
# Entry of WDR55_Q9H6Y2_306_VVGSVGQHTGEPVEELALSHCGR (UniProt Q9H6Y2) under probe-labelled cysteine peptide fold change: 0.132
